The experiment has as its target ephrin type-A receptor 2 (EPHA2) (human (endogenous in A549)) (UniProt P29317). Nature of the experiment: co-IP; cell lysates immunoprecipitated with anti-EPHB6 or anti-EPHA2 antibodies, western blot of the precipitate (Fig. 2c); for c-Cbl the cells were treated with MG132 (10 µM) for 3 h and lysates precipitated with anti-EPHB6 antibody (Fig. 2d). For orientation: A western blot detects proteins with antibodies after separation by electrophoresis.

Amino acid sequences for entries named in this document (tags omitted). Residues count along the entry.
UniProt P29317, residues 24-976: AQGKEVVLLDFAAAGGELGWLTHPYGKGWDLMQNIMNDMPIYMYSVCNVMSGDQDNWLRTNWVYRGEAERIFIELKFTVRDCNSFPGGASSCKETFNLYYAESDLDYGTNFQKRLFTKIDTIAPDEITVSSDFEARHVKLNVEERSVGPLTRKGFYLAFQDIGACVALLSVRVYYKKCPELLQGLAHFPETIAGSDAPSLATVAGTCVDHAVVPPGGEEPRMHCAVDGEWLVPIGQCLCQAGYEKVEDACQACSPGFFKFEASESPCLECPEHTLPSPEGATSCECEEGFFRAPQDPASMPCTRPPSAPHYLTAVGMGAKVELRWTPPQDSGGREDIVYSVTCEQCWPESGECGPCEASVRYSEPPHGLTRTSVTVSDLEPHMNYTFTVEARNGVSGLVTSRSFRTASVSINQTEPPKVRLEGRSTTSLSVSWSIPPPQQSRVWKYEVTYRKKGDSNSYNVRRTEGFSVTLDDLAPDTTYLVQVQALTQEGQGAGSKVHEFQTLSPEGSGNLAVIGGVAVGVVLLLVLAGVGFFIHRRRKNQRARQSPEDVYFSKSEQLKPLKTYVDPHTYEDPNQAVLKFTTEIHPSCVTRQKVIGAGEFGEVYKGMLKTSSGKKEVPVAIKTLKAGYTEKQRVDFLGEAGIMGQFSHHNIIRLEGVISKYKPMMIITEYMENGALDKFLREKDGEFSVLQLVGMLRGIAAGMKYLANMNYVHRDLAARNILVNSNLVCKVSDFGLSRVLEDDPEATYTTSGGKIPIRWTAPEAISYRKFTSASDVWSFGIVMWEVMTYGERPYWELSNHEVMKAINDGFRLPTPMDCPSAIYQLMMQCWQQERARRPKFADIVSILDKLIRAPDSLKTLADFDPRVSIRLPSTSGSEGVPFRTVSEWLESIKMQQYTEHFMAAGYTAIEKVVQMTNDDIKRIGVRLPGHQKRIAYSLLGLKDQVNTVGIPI

Results are given in words; binding and its absence hold for the method and conditions named. Binding seen in cells or lysates may run through a third protein. Some results given as binding are weak or reduced against the parent protein; the word gives no strength.

B1: ephrin type-B receptor 6 (EPHB6), wild type (receptor, UniProt O15197 32-1021)
chain: LEEVLLDTTGETSEIGWLTYPPGGWDEVSVLDDQRRLTRTFEACHVAGAPPGTGQDNWLQTHFVERRGAQRAHIRLHFSVRACSSLGVSGGTCRETFTLYYRQAEEPDSPDSVSSWHLKRWTKVDTIAADESFPSSSSSSSSSSSAAWAVGPHGAGQRAGLQLNVKERSFGPLTQRGFYVAFQDTGACLALVAVRLFSYTCPAVLRSFASFPETQASGAGGASLVAAVGTCVAHAEPEEDGVGGQAGGSPPRLHCNGEGKWMVAVGGCRCQPGYQPARGDKACQACPRGLYKSSAGNAPCSPCPARSHAPNPAAPVCPCLEGFYRASSDPPEAPCTGPPSAPQELWFEVQGSALMLHWRLPRELGGRGDLLFNVVCKECEGRQEPASGGGGTCHRCRDEVHFDPRQRGLTESRVLVGGLRAHVPYILEVQAVNGVSELSPDPPQAAAINVSTSHEVPSAVPVVHQVSRASNSITVSWPQPDQTNGNILDYQLRYYDQAEDESHSFTLTSETNTATVTQLSPGHIYGFQVRARTAAGHGPYGGKVYFQTLPQGELSSQLPERLSLVIGSILGALAFLLLAAITVLAVVFQRKRRGTGYTEQLQQYSSPGLGVKYYIDPSTYEDPCQAIRELAREVDPAYIKIEEVIGTGSFGEVRQGRLQPRGRREQTVAIQALWAGGAESLQMTFLGRAAVLGQFQHPNILRLEGVVTKSRPLMVLTEFMELGPLDSFLRQREGQFSSLQLVAMQRGVAAAMQYLSSFAFVHRSLSAHSVLVNSHLVCKVARLGHSPQGPSCLLRWAAPEVIAHGKHTTSSDVWSFGILMWEVMSYGERPYWDMSEQEVLNAIEQEFRLPPPPGCPPGLHLLMLDTWQKDRARRPHFDQLVAAFDKMIRKPDTLQAGGDPGERPSQALLTPVALDFPCLDSPQAWLSAIGLECYQDNFSKFGLCTFSDVAQLSLEDLPALGITLAGHQKKLLHHIQLLQQHLRQQGSVEV
On to B1, for which the binding entry was “binds”.

B2: ephrin type-B receptor 6 (EPHB6) Q926R mutant (receptor, UniProt O15197 32-1021)
chain: LEEVLLDTTGETSEIGWLTYPPGGWDEVSVLDDQRRLTRTFEACHVAGAPPGTGQDNWLQTHFVERRGAQRAHIRLHFSVRACSSLGVSGGTCRETFTLYYRQAEEPDSPDSVSSWHLKRWTKVDTIAADESFPSSSSSSSSSSSAAWAVGPHGAGQRAGLQLNVKERSFGPLTQRGFYVAFQDTGACLALVAVRLFSYTCPAVLRSFASFPETQASGAGGASLVAAVGTCVAHAEPEEDGVGGQAGGSPPRLHCNGEGKWMVAVGGCRCQPGYQPARGDKACQACPRGLYKSSAGNAPCSPCPARSHAPNPAAPVCPCLEGFYRASSDPPEAPCTGPPSAPQELWFEVQGSALMLHWRLPRELGGRGDLLFNVVCKECEGRQEPASGGGGTCHRCRDEVHFDPRQRGLTESRVLVGGLRAHVPYILEVQAVNGVSELSPDPPQAAAINVSTSHEVPSAVPVVHQVSRASNSITVSWPQPDQTNGNILDYQLRYYDQAEDESHSFTLTSETNTATVTQLSPGHIYGFQVRARTAAGHGPYGGKVYFQTLPQGELSSQLPERLSLVIGSILGALAFLLLAAITVLAVVFQRKRRGTGYTEQLQQYSSPGLGVKYYIDPSTYEDPCQAIRELAREVDPAYIKIEEVIGTGSFGEVRQGRLQPRGRREQTVAIQALWAGGAESLQMTFLGRAAVLGQFQHPNILRLEGVVTKSRPLMVLTEFMELGPLDSFLRQREGQFSSLQLVAMQRGVAAAMQYLSSFAFVHRSLSAHSVLVNSHLVCKVARLGHSPQGPSCLLRWAAPEVIAHGKHTTSSDVWSFGILMWEVMSYGERPYWDMSEQEVLNAIEQEFRLPPPPGCPPGLHLLMLDTWQKDRARRPHFDQLVAAFDKMIRKPDTLRAGGDPGERPSQALLTPVALDFPCLDSPQAWLSAIGLECYQDNFSKFGLCTFSDVAQLSLEDLPALGITLAGHQKKLLHHIQLLQQHLRQQGSVEV
For the molecule B2, the binding entry is recorded as “binds”.

Values taken from PMC6547695.
